Laboratory results taken from article PMC6537140.
Results are given in words; binding and its absence hold for the method and conditions named. Binding seen in cells or lysates may run through a third protein. Sequences can lack the tags named with a protein.

Experiments:
[1] = molecular target: T1, Ndc10p-YFP (S. cerevisiae) (UniProt P32504); test: FRET or BRET; FLIM-FRET in live diploid budding yeast in 96-well plates at room temperature (~24 °C); lifetime of the donor mTq2FP at kinetochore foci, image-wise monoexponential fit, compared with the donor-only strain of the same group; acceptor YFP; both fluorophores at the C-termini
T1 sequence: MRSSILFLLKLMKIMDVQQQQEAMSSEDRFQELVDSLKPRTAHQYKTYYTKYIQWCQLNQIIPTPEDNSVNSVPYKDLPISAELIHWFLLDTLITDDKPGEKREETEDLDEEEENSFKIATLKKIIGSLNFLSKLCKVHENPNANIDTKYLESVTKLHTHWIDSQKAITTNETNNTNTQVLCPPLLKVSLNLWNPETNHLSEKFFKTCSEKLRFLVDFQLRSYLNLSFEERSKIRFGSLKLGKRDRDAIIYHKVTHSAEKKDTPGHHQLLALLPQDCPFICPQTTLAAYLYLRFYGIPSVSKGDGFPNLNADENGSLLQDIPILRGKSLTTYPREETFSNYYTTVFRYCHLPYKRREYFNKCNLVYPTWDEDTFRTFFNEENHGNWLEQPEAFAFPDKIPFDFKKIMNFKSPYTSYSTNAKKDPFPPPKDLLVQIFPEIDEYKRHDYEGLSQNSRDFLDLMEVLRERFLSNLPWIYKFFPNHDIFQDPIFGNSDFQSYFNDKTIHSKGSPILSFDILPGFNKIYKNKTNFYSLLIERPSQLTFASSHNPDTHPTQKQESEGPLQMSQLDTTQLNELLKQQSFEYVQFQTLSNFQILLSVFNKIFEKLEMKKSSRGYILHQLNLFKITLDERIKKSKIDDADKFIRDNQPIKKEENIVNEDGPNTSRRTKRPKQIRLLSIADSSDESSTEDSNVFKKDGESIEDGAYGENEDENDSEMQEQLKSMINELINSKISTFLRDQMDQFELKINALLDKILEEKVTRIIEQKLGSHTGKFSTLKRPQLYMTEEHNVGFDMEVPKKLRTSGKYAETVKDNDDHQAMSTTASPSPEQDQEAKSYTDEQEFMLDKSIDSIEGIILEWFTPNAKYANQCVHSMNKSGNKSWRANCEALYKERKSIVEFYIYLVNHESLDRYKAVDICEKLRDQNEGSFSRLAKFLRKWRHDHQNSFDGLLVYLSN

[2] = molecular target: Mtw1p stochastically tagged with both mTq2FP and YFP (S. cerevisiae) (UniProt P39731); test: as above

B1: Ask1p-mTq2FP (protein, UniProt P35734 1-292)
chain: MDSASKEETLEKLDQEITVNLQKIDSNLSFCFHKITQDIIPHVATYSEICERIMDSTEWLGTMFQETGLVNLQANAAAPVGNAPVKSLVSNNVGIFPTSAEEASRQSQTDNGPNEADSAVHVNRDVHSMFNNDSIDDFHTANITSTGQILKLPDSSDEDTGSEAVPSREQTDLTGEGHGGADDEQDESTIQRQSRKRKISLLLQQQYGSSSSMVPSPIVPNKMRKQLAHEEHINNDGDNDDENSNNIESSPLKQGHHHPKGQADDNNEGPDEEESTKEVPKPGTIIHFSTNR
binding [1]: no binding

B2: Mtw1p stochastically tagged with both mTq2FP and YFP (protein, UniProt P39731 1-289)
chain: MSAPTMRSTSILTEHLGYPPISLVDDIINAVNEIMYKCTAAMEKYLLSKSKIGEEDYGEEIKSGVAKLESLLENSVDKNFDKLELYVLRNVLRIPEEYLDANVFRLENQKDLVIVDENELKKSEEKLREKVNDVELAFKKNEMLLKRVTKVKRLLFTIRGFKQKLNELLKCKDDVQLQKILESLKPIDDTMTLLTDSLRKLYVDSESTSSTEEVEALLQRLKTNGKQNNKDFRTRYIDIRTNNVLRKLGLLGDKEDEKQSAKPDARTQAGDIVSIDIEEPQLDLLDDVL
binding [2]: no binding
